Results published in PubChem BioAssay AID485318 (Broad Institute, 2010).
Fewer than 10 of roughly 1,400 compounds were called active.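 Rule for the calls: active = fluorescence-lowering compounds whose fitted half-maximal concentration is at or below ten times the highest valid dose tested; inconclusive = flat curve at 30 to 70% inhibition, or poor fit; inactive = the rest.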 This is one part of the list.

Sequences of proteins named here, by UniProt entry; tags and fusion partners are left off. A change or cut given only in a name is not applied to a line headed by its entry.
UniProt O15379: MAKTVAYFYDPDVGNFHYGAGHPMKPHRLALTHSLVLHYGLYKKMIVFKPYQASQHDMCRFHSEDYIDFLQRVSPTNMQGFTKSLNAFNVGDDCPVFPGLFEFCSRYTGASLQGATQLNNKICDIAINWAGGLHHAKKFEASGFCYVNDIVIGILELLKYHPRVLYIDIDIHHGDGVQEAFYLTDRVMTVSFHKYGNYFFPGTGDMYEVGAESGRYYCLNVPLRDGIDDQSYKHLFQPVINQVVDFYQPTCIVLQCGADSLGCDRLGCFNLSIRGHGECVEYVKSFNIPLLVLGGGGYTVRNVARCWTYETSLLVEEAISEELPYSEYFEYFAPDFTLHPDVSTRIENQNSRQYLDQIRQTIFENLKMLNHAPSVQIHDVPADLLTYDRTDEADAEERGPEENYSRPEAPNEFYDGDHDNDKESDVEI

What follows are compounds tested against Histone deacetylase 3 (Homo sapiens) (UniProt O15379) (assay: inhibition of human HDAC3 enzymatic activity – biochemical, fluorescence, cherry-picked samples, counter-screen for JMJD2C/GASC1 demethylase inhibitor project, dose response (AID 485318;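 note: enzyme preincubated with compound before substrate and trypsin were added; 0% = neutral control wells and -100% = SAHA positive control wells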)). Conditions: recombinant HDAC3, fluorogenic peptide/trypsin coupled; at 12 µM (top of the series).

Structure (SMILES)	activity change, negative = inhibition
Cc1cc(Cl)ccc1OCC(=O)NCCCN1CCOCC1	inactive: 0.459%
COc1ccc(C(=O)Nc2ncc3c(n2)CC(c2ccco2)CC3=O)cc1 (centres undefined)	inactive: -0.124%
c1ccc(-c2csc(-n3cccn3)n2)cc1	inactive: 0.0513%
CCCn1c(SCC(=O)Nc2c(C)cccc2CC)nnc1C(C)C	inactive: -0.111%
COc1cccc(S(=O)(=O)Nc2cccc(C(=O)N3CCCCCC3)c2)c1	inactive: 0.765%
O=C(NNC(=O)c1ccc(SCC2CCCO2)c([N+](=O)[O-])c1)c1ccc(Cl)c([N+](=O)[O-])c1 (centres undefined)	inactive: 0.342%
COc1ccc(NC(=O)NC(C)c2ccc3c(c2)OCO3)c(OC)c1 (centres undefined)	inactive: -0.749%
O=C(CN1C(=O)NC2(CCOc3ccccc32)C1=O)c1ccc[nH]1 (centres undefined)	inactive: 0.405%
CC(C)CN(C(=O)c1ccc(N2CCCC2=O)cc1)c1c(N)n(Cc2ccccc2)c(=O)[nH]c1=O	inactive: 0.575%
O=c1cc(NC2CCCCCC2)[nH]c(=O)[nH]1	inactive: 1.3%
CC(C)=CCN1CCN(Cc2cn[nH]c2C2CCCCC2)CC1CCO (centres undefined)	inactive: -0.0508%
COc1ccc(CCC(=O)Nc2sccc2C#N)cc1	inactive: 0.697%
O=C(O)CCC(=O)Nc1nc2nc(-c3ccccc3)cc(-c3ccccc3)n2n1	inactive: 0.485%
O=C(Nc1ccc(Cl)cc1)N1CCN(c2ccccc2)CC1	inactive: 0.39%
COc1ccc(CCN2C(=O)CC(NNC(=O)c3ccccc3Br)C2=O)cc1 (centres undefined)	inactive: 0.241%
CNC[C@H]1Oc2c(NS(=O)(=O)c3cccs3)cccc2C(=O)N([C@H](C)CO)C[C@@H]1C	inactive: 0.325%
Cc1ccccc1CN1C(=O)C(O)(CC(=O)c2ccncc2)c2ccccc21 (centres undefined)	inactive: 0.426%
CC(OC(=O)c1ccc([N+](=O)[O-])s1)C(=O)Nc1ncc(Cl)cc1Cl (centres undefined)	inactive: 0.0687%
CCOC(=O)c1c(C)[nH]c(C(=O)CN2CCOCC2)c1C	inactive: 0.0897%
O=C(NCCCN1CCCC1=O)c1cc(-c2cccnc2)nc2ccc(Cl)cc12	inactive: 0.423%
Cn1c(=O)n(C)c2cc(S(=O)(=O)N3CCOCC3)ccc21	inactive: 1.24%

Structure (SMILES)	activity change, negative = inhibition
CCOC(=O)Cc1csc(NC(=O)COc2cccc(C)c2)n1	inactive: 0.939%
CS(=O)(=O)N(CCc1ccccc1)CC(=O)NCC1CCCO1 (centres undefined)	inactive: 0.562%
Cc1cnn(C(=O)c2ccccc2Br)c1	inactive: 0.354%
CC1CCN(C(=O)CSc2nnc(CNC(=O)c3c(F)cccc3F)o2)CC1	inactive: -0.34%
CCn1c(=O)c(C(=O)CN2c3ccccc3CC2C)c(N)n(Cc2ccccc2)c1=O (centres undefined)	inactive: 0.906%
Cn1c2ccccc2c(=O)c2ccc(NCCc3cccs3)cc21	inactive: 0.689%
COc1cccc(C(c2nnnn2CCc2ccccc2)N2CCN(c3ccccc3)CC2)c1OC (centres undefined)	inactive: -0.0474%
Cc1ccc(CNC(=O)Cc2ccc(-c3ccccc3)cc2)cc1	inactive: -0.612%
CC(=O)Nc1ccc2c(c1)C(C)(C)C(C)N2C (centres undefined)	inactive: -1.19%
CS(=O)(=O)NC1c2cccc3cccc(c23)C1Sc1nncn1/N=C/c1ccco1 (centres undefined)	inactive: 0.4%
N#CC(C(=O)NCCc1ccccc1)c1nc2ccccc2nc1N1CCOCC1 (centres undefined)	inactive: -0.358%
Fc1ccccc1OCCCCn1cncn1	inactive: -0.561%
CCCCC1CCC(C(=O)N(CC(C)C)c2c(N)n(Cc3ccccc3)c(=O)[nH]c2=O)CC1 (centres undefined)	inactive: 0.64%
CCc1ccc(-c2cc(C)no2)cc1S(=O)(=O)NCCc1ccc(OC)c(OC)c1	inactive: 1.04%
Cn1c(=O)c2c(ncn2CCN(CCO)Cc2ccccc2)n(C)c1=O	inactive: -0.278%
CCOC(=O)c1c(C)n(C)c2ccc(O)c(S(=O)(=O)c3ccccc3)c12	inactive: 0.00557%
O=C(/C=C/c1cc([N+](=O)[O-])ccc1OC(F)F)Nc1ccc(OC(F)F)cc1	inactive: -0.338%
COC(=O)C1=C(C(=O)OC)SC(=C2C(=S)C(C)(C)N(C(=O)C(C)C)c3ccccc32)S1	inactive: -0.163%
COC(=O)CNS(=O)(=O)c1ccc(C)cc1	inactive: -0.826%
Cc1ccccc1NC(=O)c1c(F)c(F)c(F)c(F)c1F	inactive: 0.457%
CN(C(=O)c1ccccn1)c1nnc(-c2ccccn2)s1	inactive: -0.4%

Structure (SMILES)	activity change, negative = inhibition
CCOc1ccc(-c2nc(CSCC(=O)NC3CCCc4ccccc43)c(C)o2)cc1 (centres undefined)	inactive: 0.296%
S=c1[nH]nc(COc2ccccc2)n1/N=C/c1ccccn1	inactive: 0.592%
CCCn1nnnc1SCC(=O)NNC(=O)c1ccco1	inactive: 0.361%
COCCCNC(=O)c1ccc2c(c1)CCN2S(C)(=O)=O	inactive: -0.279%
Cc1cccc(NC(=O)C2CCN(S(=O)(=O)c3cccc4nsnc34)CC2)n1	inactive: 0.00374%
C=CCNC(=O)c1ccc(S(=O)(=O)CC)c(Cl)c1Cl	inactive: 0.0672%
CN(c1cccc(Cl)c1)S(=O)(=O)c1cccc(C(=O)Nc2ccc3c(c2)CCC3)c1	inactive: -0.407%
COCCCn1c(SCC(=O)NCc2ccco2)nc2sc3c(c2c1=O)CCC3	inactive: 0.159%
O=c1ccc(=O)n2n1CC(O)C2	inactive: 0.0396%
C#CCOCCOCCOCCNc1nc(N2CCN(C(=O)[C@H](CCC(=O)O)n3cc([C@@H](N)CCCCN)nn3)CC2)nc(N2CCN(C(=O)[C@H](CCC(=O)O)n3cc([C@@H](N)CCCCN)nn3)CC2)n1	inactive: -0.665%
CN(C(=O)COc1ccccc1)c1nnc(-c2ccncc2)s1	inactive: 0.797%
C[C@H](CO)N1C[C@H](C)[C@@H](CN(C)S(=O)(=O)c2ccccc2)Oc2c(NC(=O)CCC(F)(F)F)cccc2C1=O	inactive: 0.587%
COc1ccc(/C(C)=N/Nc2nccnc2Cl)cc1	inactive: 0.584%
Cc1cccc(NS(=O)(=O)c2cccc3nsnc23)c1	inactive: 0.0826%
Cc1cc(=O)[nH]c(CN2CCOCC2)n1	inactive: 0.884%
COc1ccc(OC)c(/C=C2\SC(=S)N(Cc3cccnc3)C2=O)c1	inactive: 0.203%
Cc1ccc(C(=O)Nc2sc3c(c2C(=O)O)CCCC3)o1	inactive: -0.148%
N#C/C(N=Nc1ccccc1O)=N\Nc1ccccc1O	inactive: 0.341%
Cn1c(=O)c2c(nc(NC3CCCCC3)n2Cc2ccccc2)n(C)c1=O	inactive: 0.361%
CC(=O)N(C)C1=C(N2CCOCC2)C(=O)c2ccccc2C1=O	inactive: 0.32%
C[C@@]12C(=O)Nc3cc(F)c(F)cc3C(=O)N1[C@H]1c3cc(Cl)ccc3OC[C@@H]1[C@@H]2c1ccccc1	inactive: 0.00585%

Four of the compounds above, field by field.
Cn1c(=O)c2c(ncn2CCN(CCO)Cc2ccccc2)n(C)c1=O
  activity change, negative = inhibition: inactive: -0.278%
CCOC(=O)c1c(C)n(C)c2ccc(O)c(S(=O)(=O)c3ccccc3)c12
  activity change, negative = inhibition: inactive: 0.00557%
O=C(/C=C/c1cc([N+](=O)[O-])ccc1OC(F)F)Nc1ccc(OC(F)F)cc1
  activity change, negative = inhibition: inactive: -0.338%
COC(=O)C1=C(C(=O)OC)SC(=C2C(=S)C(C)(C)N(C(=O)C(C)C)c3ccccc32)S1
  activity change, negative = inhibition: inactive: -0.163%

Following part

Structure (SMILES)	activity change, negative = inhibition
CCCCn1c(=O)[nH]c(=O)c2c1nc(-c1cc(Cl)c(OC)c(OC)c1)n2C	inactive: 1.11%
CCC(CC)NC(=O)CSc1nnc(-c2ccc(OC)cc2)n1C(C)C	inactive: 0.191%
O=c1n(Cc2ccccc2)c2cc(Cl)cnc2n1Cc1ccccc1	inactive: -0.29%
CC[C@@]1(C(=O)OC)N[C@H](CN(C)C(=O)Nc2ccc(C)cc2)[C@@H]2C(=O)N(C)C(=O)[C@@H]21	inactive: 0.71%
C[C@H](CO)N1C[C@H](C)[C@@H](CN(C)Cc2ccncc2)Oc2c(NC(=O)Cc3ccccc3)cccc2C1=O	inactive: 0.369%
CC#CCOC(=O)c1c(C)nc2sc3c(c2c1N)CCC(O)C3 (centres undefined)	inactive: 0.329%
C=CCOc1ccc(C(=O)NC2CCCCC2)cc1	inactive: -0.562%
Cn1c(=O)[nH]c(=O)c2c1nc(N1CCc3ccccc3C1)n2CCSc1nc2ccccc2s1	inactive: -0.287%
CC(=O)N=c1sccn1CC(=O)c1ccc([N+](=O)[O-])cc1	inactive: 0.58%
CCOC(=O)C1CCN(S(=O)(=O)c2cccc(-c3cn4cc(Cl)ccc4n3)c2)CC1	inactive: 0.424%
COc1ccc(NC(=O)Nc2c[nH]c(=O)[nH]c2=O)cc1OC	inactive: -0.634%
O=C(c1cccc(-n2cccc2)c1)N1CCN(S(=O)(=O)c2c(F)cccc2F)CC1	inactive: -0.285%
Cc1ccc(C(=O)NCCCCNC(=O)c2ccc(C)o2)o1	inactive: 0.494%
Cc1cccc2c1-c1sc(C(=O)Nc3cccc([N+](=O)[O-])c3C)cc1CO2	inactive: 0.313%
Cn1cccc1-c1nc2ccc(NC(=O)c3cccs3)cc2[nH]1	inactive: -0.389%
C[C@H](CO)N1C[C@H](C)[C@@H](CN(C)C(=O)NC2CCCCC2)Oc2c(NC(=O)c3ccncc3)cccc2C1=O	inactive: 0.748%
Cn1c2ccccc2c2c(C(=O)N3CCN(c4ccccn4)CC3)cn(C3CCCC3)c(=O)c21	inactive: 0.168%
O=C(NCc1cccc(F)c1)C1CCN(S(=O)(=O)Cc2ccccc2)CC1	inactive: 0.13%
C[C@@H]1CC[C@]2(C(=O)O[C@@H]3O[C@H](CO)[C@@H](O)[C@H](O)[C@H]3O)CC[C@]3(C)C(=CCC4[C@@]5(C)C[C@@H](O)[C@H](O)[C@@](C)(C(=O)O[C@@H]6[C@H](O)C[C@@]7(C)C(CC[C@]8(C)C7CC=C7[C@H]9[C@](C(=O)O[C@@H]%10O[C@H](CO)[C@@H](O)[C@H](O)[C@H]%10O)(CC[C@@H](C)[C@@]9(C)O)CC[C@]78C)[C@@]6(CO)C(=O)O)C5CC[C@]43C)[C@@H]2[C@]1(C)O (some centres undefined)	inactive: 0.0643%
O=C(O)c1ccc(/C=N/Nc2cccc(C(F)(F)F)c2)cc1	inactive: 0.56%
Cc1oc(C(C)(C)C)cc1C(=O)N1CCN(c2ncccc2C(F)(F)F)CC1	inactive: 0.445%
